Among the data in publication PMC10617112 are binding values, retold here.

These are yes or no findings as the source states them, for the method shown. Binding calls can cover weak binding; strength is not graded here. Tags and fused reporters may be left off the sequences shown. For some of these results: In cells and extracts the contact can be indirect.

The target in test [1] is BD-VdCmr1 (Verticillium dahliae). Briefly: two-hybrid; one-to-one Y2H in yeast Y2Hgold; prey in pGADT7, bait in pGBKT7; growth and blue colour on QDO (SD lacking Leu, Trp, His, Ade) with 3AT, 0.1 ug/mL AbA and 20 ug/mL X-a-Gal, 5 days.
Test [2] deals with VdCmr1-YFP^N (Verticillium dahliae). Briefly: split reporter; BiFC with YFP^N (pHZ65) and YFP^C (pHZ68) fusions co-transformed into protoplasts of V. dahliae WT strain AT13; YFP signal by fluorescence microscopy, cell wall stained with CFW.

B1: AD-VdZFP2 (protein, UniProt G2XEQ9 1-886)
chain: MSKASGSYATHDRDSLPSFIGAQPRDLFPSPSQLGPPYRLTRVVGMDSSRPQPFHLPGQDVLTDVNLTPGGGDAPLRGIPKPWNILKFYDATADDSPWVPLGIIVPDHRAGQGQHQNSPTALRDAFAPRYSEWRSPGPSECDTLPPGQLPSDSGYESRRTKQSIANASVFGDVDRGHETQSLTGRMDGFDPFAGMSSTPSYTGNSANNHAYMTETCGLSTLRTRGTAHSTVIICPDCGSHLKTKSELNKHKQRHSKPHKCDVSGCSREEGFSTINDLDRHKRSVHRDTDTGGPRYRCHLAPCHNKKKIWPRADNFRSHLRRLHGVRAVDDDLAQYLIPSQQQDVGSLTEGMDASDSTIESFRFTPYDQEMPPSMWANHQSQDLEMTHLVVDSTGPRTELDISVASPASHGFSGLGEPNTGHAVRELPLGIMQGGNPQQRGMNCRKHLNLTQCGMDSNSNTSDATTPPETTLAPHPLMGGNLRNPSMEIEQNPTADRSDQVNPSDTSASEADADSSSEDLHEQENLMRRNDHSEVSHDPKAISAGSLVEVIKTPPFLSQGIDTGGAHNISPTSTQDITMTDQQINEFLQAVPEALLEKFLRERHNPFRIEPIKARTTVQANAQHPCPGCHKSFQRRCDLKKHIKRHDKPYGCTFLNCDKSFGSKNDWKRHETSQHTQLEVWKCNERASKGVGTICGKVFPRREDFKVHLQGTHNFRDVSALEAELHSCRIGRDCGLRYWCGFCEKIMEISHPAMQPSTKRFDHIDDHFCGRNTDKRSISDWKHLETELSASGSTPSSDKMETPKSSPEHQATARVSPSKNGRLVSDSTLPGKRKLDDDSECPESRRPRGRLATMWTCCNCTMQSSFRFNRACVSCSHSRCVDCPVET
As for B1, the binding entry in test [1] is “binds”.

B2: VdZFP2-YFP^C (protein, UniProt G2XEQ9 1-886)
chain: B1 chain
On to B2, for which the binding result in test [2] is “binds”.

B3: AD-VdZFP1 (protein, UniProt G2XER1 1-585)
chain: MTYHIFHLDRRLTQGPFYPEHQDYGQNQASHTEDALNFDMPPPIDPNLEQGLTAHLGTVSWPGVHTHQLKQYMVGPSTSLFALGQFQANYAYSQHDVNPLPPVSQGRHGSPFSQHHSSSCSDSLSPPTEIDVLPSTPPDMSATSPFSQAIKFQPSWDAQQSRLYTLRGIVPTQENPYVSLLEVNPSQDIFENEKAPEYDGSMALSFSSAGSQSEMEVQVKDEIFVAHSHSQPTYPDPDYEERDQSELEAEEMIMKHEDEDKEWTPHPSRKRTRSDANKAQYVATRPARKRSKVHALPRAVPSKSSHEAPHSTKHVLSCEACAQGPFRDEAALQKHMKGKHIRPFVCIFNFAGCSSSFPSKNEWKRHVVTQHLALSFWHCKQDACESCTNPASASQQGSPATDTPSPLPRGAIFNRKDLYTQHVRRMHVPPPIAKALRLRKPTPEWDDRLREMQTEAERRRCELPTHMQCPASGCDMVFSGANAWDERMEHVAKHLEKASEGREPMLSFGGDGDPTLTNWAASPGVGVVRKTDTGEWELMHPLRGQPASAGGIAKRGAKGHSSSSPQAARYEEESAEDVDADGEED
Consider B3, for which, in test [1], the binding entry is reported as “binds”.

B4: VdZFP1-YFP^C (protein, UniProt G2XER1 1-585)
chain: B3 chain
As for B4, the binding result in test [2] is listed as “binds”.
